From PMC8864220, “Transcriptional Regulation of the Creatine Utilization Genes of Corynebacterium glutamicum ATCC 14067 by AmtR, a Central Nitrogen Regulator” come the findings set out here.

Data set [1] concerns the target T1, AmtR (Corynebacterium glutamicum ATCC 14067) (UniProt H7C699).
T1 sequence (looked up, limits assumed): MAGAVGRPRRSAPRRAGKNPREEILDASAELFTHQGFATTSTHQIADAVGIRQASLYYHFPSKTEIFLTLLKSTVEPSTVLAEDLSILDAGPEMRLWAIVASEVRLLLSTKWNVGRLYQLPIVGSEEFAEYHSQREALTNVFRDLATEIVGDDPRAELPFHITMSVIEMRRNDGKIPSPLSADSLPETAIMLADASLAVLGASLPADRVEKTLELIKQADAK
Briefly: EMSA. The following applies: 20 ul: 10 mM Tris pH 7.0, 50 mM KCl, 1 mM DTT, 10 mM EDTA, 2.5% glycerol, 0.05% NP-40, 50 ng/ul poly(dIdC), 100 ng DNA, 0-0.8 ug AmtR, recombinant …, protein details: C-terminal His6, probe letters rebuilt from the primers and the genome. Background: A gel shift assay detects complexes by their altered migration in electrophoresis.

Data set [2] addresses T2, AmtR (Corynebacterium glutamicum ATCC 14067) (UniProt H7C699).
T2 sequence (looked up, limits assumed): T1 sequence (looked up, limits assumed) with H34R, I87T, S203P
Put plainly: EMSA. The following applies: 20 ul: 10 mM Tris pH 7.0, 50 mM KCl, 1 mM DTT, 10 mM EDTA, 2.5% glycerol, 0.05% NP-40, 50 ng/ul poly(dIdC), 100 ng DNA, 0-0.8 ug AmtR, protein details: C-terminal His6.

Changes are numbered by the printed parent chain. For at least one entry, the source does not settle the construct or the ends of the probe. For part of these data: Negatives hold for the conditions tested. Where a protein sequence is shown, tags need not be part of it. For part of these data: A weaker result is weaker than the reference pair of the same experiment. For part of these data: At least one verdict rests on a figure or table, not on a statement of the authors.

For “CGGTGTCATCGCCAGCGATGGTGCCAACGACTTCTTTCAGCCCCACCCTATCGATGAAACTTGCCAGGTACTGGGCAGCTCCCGGCGGGGTGCGCAGCATCGCGATGTTGCCGGAATGATCTGTAGAAACCAGCAGTTCATCAAGCATGCGGCGCAGCTTCTCCGACGGACCCCGGAGATCTTCGCGGGCGATGCTATCTACTGGGCCGACCGCGTAGTAGGCGCGTCCCCCATCGGGGCGAACCTTGCGTGCACCGAGTTCATCGAGATCCCGGGACAAGGTGGCCTGGGTGATATCGATGCCTTCATCCAGCAGCAATTCAGACAGTTGTACCTGGCTGGTGACTTTTTGTTTGTCCAAAATCTGCAAAATGAGAGCTTGGCGTGCAGTGCGAGTC (double strand) [argR-EMSA]”, the binding result in data set [1] is reported as “no binding”.
On to “GTTGCGCTATAGAAAAAGCGTCGGAGACCGACTATGTTCAGA (double strand) [PhyuB-3]”, for which the binding result in data set [2] (recombinant …) is given as “binds more weakly”.
For the sequence “GATTTTGCAAGTTTCTATAGATTGATAGAAAAAGGAGTTTAG (double strand) [EMSA-PC (amtA promoter)]”, in data set [2] (positive control, recombinant protein), the binding result was “binds”.
